Experimental data published in the supplement of paper PMC12823440, “Inhibitors supercharge kinase turnover through native proteolytic circuits” (Nature, 2025).
Structures can show the parent of a compound that is named as a salt. This is one part of the list. The calls rarely recur for the same compound in another form.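 Kinases, fused to nanoluciferase, were expressed in K562 cells; luminescence was measured every 4 h from 2 to 18 h as percent of control (DMSO = 100%, positive control = 0%). A time point is decreased if signal falls significantly (2 sigma). Hits were called by the authors by a rule that is not shown; the count of time points alone does not decide it.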

By UniProt entry, the sequences of proteins in these tests, tags left out. Where a name states a change or a piece, a line headed by the entry shows the natural chain unless it says otherwise.
UniProt O96013: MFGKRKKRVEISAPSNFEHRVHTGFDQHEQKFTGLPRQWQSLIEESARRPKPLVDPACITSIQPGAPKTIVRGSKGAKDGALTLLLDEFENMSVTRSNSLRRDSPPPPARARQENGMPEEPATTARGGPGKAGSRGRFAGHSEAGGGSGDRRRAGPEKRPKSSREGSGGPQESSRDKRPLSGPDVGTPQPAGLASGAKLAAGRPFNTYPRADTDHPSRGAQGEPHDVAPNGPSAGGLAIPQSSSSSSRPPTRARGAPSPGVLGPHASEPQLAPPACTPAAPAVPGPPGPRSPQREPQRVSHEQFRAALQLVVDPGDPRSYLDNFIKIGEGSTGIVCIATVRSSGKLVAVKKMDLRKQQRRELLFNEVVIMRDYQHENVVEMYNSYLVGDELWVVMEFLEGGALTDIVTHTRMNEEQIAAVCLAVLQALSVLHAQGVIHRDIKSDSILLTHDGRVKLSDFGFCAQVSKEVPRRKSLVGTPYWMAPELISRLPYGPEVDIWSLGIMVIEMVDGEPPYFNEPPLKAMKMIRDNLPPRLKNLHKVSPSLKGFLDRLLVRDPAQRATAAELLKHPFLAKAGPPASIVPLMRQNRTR
UniProt Q96KB5: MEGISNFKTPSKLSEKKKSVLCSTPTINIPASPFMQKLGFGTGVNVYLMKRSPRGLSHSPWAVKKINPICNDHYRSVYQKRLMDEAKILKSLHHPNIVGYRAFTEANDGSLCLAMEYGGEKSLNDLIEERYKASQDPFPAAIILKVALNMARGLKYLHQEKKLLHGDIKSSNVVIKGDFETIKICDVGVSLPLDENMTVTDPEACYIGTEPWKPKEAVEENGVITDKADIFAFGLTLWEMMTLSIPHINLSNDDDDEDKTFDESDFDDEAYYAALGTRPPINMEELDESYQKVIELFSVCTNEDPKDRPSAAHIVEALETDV
UniProt Q15118, whole entry, looked up: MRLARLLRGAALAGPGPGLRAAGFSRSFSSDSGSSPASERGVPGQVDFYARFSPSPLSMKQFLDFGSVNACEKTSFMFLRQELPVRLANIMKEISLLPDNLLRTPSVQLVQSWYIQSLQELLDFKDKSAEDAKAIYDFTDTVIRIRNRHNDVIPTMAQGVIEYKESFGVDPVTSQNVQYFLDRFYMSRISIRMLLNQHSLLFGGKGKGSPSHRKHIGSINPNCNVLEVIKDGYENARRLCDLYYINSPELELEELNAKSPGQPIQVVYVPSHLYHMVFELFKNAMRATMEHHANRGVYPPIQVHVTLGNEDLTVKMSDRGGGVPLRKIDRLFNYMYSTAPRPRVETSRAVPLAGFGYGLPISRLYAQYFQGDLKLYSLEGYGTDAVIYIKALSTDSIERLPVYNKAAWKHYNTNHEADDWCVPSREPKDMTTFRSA
UniProt O15530: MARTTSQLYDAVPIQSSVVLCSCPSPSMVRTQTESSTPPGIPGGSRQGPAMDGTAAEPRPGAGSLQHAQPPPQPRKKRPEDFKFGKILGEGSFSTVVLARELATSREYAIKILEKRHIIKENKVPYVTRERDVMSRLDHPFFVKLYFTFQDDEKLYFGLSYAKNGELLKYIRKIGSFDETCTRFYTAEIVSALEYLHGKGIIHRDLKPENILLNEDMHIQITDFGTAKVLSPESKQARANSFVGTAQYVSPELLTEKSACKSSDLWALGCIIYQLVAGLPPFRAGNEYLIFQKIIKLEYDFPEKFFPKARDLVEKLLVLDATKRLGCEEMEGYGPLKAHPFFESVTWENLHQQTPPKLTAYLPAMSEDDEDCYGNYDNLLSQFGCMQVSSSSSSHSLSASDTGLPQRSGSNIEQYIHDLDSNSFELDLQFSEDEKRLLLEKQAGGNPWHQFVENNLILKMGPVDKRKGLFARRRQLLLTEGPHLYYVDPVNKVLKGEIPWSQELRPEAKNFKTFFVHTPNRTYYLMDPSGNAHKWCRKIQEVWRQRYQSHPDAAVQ
UniProt P42356, whole entry, looked up: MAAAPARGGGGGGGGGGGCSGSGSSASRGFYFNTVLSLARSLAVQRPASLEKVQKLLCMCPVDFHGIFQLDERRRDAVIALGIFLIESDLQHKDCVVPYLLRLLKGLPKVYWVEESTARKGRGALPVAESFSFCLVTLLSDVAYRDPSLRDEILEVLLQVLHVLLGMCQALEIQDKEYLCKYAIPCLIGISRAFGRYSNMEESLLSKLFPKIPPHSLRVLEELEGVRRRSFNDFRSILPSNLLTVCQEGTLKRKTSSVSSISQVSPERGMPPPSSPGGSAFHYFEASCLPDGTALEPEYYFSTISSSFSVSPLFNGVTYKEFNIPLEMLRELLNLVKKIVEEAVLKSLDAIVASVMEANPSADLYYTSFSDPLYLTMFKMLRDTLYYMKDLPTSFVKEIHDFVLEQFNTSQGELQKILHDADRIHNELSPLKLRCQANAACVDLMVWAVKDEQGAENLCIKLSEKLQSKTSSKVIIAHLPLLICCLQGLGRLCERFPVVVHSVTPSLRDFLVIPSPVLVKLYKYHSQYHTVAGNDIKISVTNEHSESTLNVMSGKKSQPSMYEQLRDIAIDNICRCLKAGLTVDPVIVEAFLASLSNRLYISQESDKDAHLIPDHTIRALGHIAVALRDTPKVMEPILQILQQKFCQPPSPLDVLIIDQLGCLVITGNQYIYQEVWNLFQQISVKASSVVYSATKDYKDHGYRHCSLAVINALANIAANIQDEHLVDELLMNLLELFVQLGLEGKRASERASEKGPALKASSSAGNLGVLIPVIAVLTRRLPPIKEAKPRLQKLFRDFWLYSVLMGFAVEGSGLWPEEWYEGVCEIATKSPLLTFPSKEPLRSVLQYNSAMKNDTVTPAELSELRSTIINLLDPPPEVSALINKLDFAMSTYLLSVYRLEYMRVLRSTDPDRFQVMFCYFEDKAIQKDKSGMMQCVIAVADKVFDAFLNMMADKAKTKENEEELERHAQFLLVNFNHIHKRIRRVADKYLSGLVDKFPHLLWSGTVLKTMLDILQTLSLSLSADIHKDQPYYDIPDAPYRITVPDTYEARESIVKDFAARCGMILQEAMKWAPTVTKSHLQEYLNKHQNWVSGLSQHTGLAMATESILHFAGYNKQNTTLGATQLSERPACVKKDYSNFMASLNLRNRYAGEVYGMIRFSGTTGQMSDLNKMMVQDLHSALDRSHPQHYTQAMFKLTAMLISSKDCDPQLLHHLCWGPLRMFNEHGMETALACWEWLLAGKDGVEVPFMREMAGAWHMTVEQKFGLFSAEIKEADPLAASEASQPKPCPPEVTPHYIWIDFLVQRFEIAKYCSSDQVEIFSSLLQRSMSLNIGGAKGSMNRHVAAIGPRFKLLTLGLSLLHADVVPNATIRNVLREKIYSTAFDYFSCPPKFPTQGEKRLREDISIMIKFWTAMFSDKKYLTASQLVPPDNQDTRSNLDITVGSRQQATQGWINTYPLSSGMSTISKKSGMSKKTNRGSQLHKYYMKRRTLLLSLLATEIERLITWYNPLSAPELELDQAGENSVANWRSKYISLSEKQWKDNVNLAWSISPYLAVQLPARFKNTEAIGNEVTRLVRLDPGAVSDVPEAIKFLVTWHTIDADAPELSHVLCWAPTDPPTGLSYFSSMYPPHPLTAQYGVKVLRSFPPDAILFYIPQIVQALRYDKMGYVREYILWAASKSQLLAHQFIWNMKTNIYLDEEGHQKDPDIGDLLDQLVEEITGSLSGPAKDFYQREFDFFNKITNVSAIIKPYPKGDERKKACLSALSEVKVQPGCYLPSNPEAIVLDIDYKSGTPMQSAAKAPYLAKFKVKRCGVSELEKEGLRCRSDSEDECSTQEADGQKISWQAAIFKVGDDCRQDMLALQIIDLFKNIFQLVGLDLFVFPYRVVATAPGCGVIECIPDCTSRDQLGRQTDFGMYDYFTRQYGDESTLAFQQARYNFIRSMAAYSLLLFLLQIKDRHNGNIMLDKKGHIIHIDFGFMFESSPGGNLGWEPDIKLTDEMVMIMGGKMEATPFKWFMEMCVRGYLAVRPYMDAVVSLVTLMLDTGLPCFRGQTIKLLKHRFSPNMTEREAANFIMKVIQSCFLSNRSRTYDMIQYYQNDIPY
UniProt Q9UBF8: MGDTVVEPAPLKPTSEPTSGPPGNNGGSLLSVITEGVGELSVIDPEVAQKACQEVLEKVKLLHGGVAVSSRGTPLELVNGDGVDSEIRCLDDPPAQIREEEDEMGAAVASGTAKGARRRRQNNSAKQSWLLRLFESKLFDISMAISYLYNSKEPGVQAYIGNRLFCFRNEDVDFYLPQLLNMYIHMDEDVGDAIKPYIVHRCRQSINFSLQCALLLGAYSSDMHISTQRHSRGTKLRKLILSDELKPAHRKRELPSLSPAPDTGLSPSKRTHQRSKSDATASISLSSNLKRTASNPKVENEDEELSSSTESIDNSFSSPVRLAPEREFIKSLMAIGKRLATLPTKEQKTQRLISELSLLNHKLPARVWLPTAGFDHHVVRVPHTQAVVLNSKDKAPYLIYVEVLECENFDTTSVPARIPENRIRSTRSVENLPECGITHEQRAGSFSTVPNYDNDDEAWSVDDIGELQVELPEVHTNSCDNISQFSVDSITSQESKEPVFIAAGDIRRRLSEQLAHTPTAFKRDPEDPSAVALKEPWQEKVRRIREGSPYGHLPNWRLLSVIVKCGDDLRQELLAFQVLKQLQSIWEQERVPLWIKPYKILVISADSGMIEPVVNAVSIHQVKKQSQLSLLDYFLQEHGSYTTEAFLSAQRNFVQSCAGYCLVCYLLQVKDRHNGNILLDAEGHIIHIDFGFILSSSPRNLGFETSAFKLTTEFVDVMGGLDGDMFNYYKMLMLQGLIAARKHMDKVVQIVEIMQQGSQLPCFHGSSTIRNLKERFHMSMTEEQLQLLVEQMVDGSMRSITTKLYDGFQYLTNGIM
UniProt P53350, whole entry: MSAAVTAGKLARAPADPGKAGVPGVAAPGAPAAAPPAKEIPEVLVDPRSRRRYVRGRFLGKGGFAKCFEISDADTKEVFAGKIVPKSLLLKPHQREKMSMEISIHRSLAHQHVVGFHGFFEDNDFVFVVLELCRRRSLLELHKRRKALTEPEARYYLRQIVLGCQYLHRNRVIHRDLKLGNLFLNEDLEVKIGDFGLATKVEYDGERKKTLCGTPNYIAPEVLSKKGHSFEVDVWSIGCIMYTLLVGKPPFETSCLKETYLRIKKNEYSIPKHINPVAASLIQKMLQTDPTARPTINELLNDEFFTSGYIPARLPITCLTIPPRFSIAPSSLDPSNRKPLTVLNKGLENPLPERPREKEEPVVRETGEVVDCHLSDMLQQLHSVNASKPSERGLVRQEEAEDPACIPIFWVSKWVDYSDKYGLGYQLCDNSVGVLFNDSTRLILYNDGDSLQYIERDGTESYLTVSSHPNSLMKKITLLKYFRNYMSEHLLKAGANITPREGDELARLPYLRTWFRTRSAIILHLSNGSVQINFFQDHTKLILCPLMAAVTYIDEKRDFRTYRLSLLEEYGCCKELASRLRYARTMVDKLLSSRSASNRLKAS
UniProt Q13131: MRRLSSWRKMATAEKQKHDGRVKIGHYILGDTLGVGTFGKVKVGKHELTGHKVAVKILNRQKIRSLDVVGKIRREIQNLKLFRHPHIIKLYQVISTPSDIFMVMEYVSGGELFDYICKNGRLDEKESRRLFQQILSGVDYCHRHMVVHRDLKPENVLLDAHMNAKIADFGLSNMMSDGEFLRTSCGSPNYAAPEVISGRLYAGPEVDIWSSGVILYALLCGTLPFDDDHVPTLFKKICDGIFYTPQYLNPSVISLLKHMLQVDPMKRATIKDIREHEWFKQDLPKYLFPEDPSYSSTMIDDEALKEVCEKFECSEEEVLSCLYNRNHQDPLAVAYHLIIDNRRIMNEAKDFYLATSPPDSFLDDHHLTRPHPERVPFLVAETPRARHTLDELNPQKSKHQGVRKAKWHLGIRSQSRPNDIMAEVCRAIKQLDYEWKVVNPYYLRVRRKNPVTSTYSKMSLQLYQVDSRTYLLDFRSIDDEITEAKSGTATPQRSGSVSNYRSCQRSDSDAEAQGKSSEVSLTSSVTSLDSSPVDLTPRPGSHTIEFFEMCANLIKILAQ

Assays:
Test in all cases: number of time points (of 5) at which kinase-Nluc abundance scored as decreased, DMSO-normalised (count); higher = more persistent destabilization
Conditions in all cases: K562; 2-18 h
NTRK3 = NTRK3 (UniProt Q16288)
PAK4 = PAK4 (UniProt O96013)
PBK = PBK (UniProt Q96KB5)
PDGFRB = PDGFRB (UniProt P09619)
PDK1 = PDK1 (UniProt Q15118)
PDPK1 = PDPK1 (UniProt O15530)
PIK4CA = PIK4CA (UniProt P42356)
PIK4CB = PIK4CB (UniProt Q9UBF8)
PLK1 = PLK1 (UniProt P53350)
PRKAA1 = PRKAA1 (UniProt Q13131)

Row | SMILES | number of time points (NTRK3) | number of time points (PAK4) | number of time points (PBK) | number of time points (PDGFRB) | number of time points (PDK1) | number of time points (PDPK1) | number of time points (PIK4CA) | number of time points (PIK4CB) | number of time points (PLK1) | number of time points (PRKAA1)
1 | C=CC(=O)N[C@H]1COC[C@H]1Nc1ncc2cc(-c3c(Cl)c(OC)cc(OC)c3Cl)c(=O)n(C)c2n1 (10 µM) | 0 | 0 | 0 | 0 | 0 | 0 | 0 | 0 | 0 | 0
2 | C[C@]1(O)C[C@@H](c2nc(-c3ccc4ccc(-c5ccccc5)nc4c3)c3c(N)nccn32)C1 [Linsitinib] (2.5 µM) | 0 | 0 | 0 | 0 | 0 | 0 | 0 | 0 | 0 | 0
3 | CC(C)c1cnn2c(NCc3ccccc3)cc(NC[C@H]3CCNC[C@@H]3O)nc12 [Samuraciclib (hydrochloride)] (10 µM) | 0 | 0 | 0 | 0 | 0 | 0 | 0 | 0 | 0 | 0
4 | CNC(=O)c1cccc(-c2ccc3c(N4CCOC[C@@H]4C)nc(N4CCOC[C@@H]4C)nc3n2)c1 [Vistusertib] (2.5 µM) | 4 | 0 | 0 | 2 | 0 | 4 | 4 | 3 | 3 | 3
5 | Brc1c(Br)c(Br)c2n[nH]nc2c1Br (10 µM) | 0 | 0 | 0 | 0 | 0 | 0 | 0 | 0 | 0 | 0
6 | COc1cc(C)c(Sc2cnc(NC(=O)c3ccc(CNC(C)C(C)(C)C)cc3)s2)cc1C(=O)N1CCN(C(C)=O)CC1 (stereo not given) (2.5 µM) | 0 | 0 | 0 | 0 | 0 | 0 | 0 | 0 | 0 | 0
7 | COCCOc1cc2nccc(Nc3n[nH]c(C)c3C)c2cc1S(=O)(=O)C(C)(C)C [RIP2 kinase inhibitor 2] (2.5 µM) | 0 | 0 | 0 | 0 | 0 | 0 | 0 | 0 | 0 | 0
8 | O=C1Nc2ccccc2/C1=C/c1ccc(F)cc1 (10 µM) | 0 | 0 | 0 | 0 | 0 | 0 | 0 | 0 | 0 | 0
9 | CC(C)(/C=C(\C#N)C(=O)N1CCC[C@@H](n2nc(-c3ccc(Oc4ccccc4)cc3F)c3c(N)ncnc32)C1)N1CCN(C2COC2)CC1 (2.5 µM) | 0 | 0 | 0 | 0 | 0 | 0 | 0 | 0 | 0 | 0
10 | CNC(=O)c1cc(Oc2ccc(NC(=O)Nc3cc(C(C)(C)C)nn3-c3ccc4ncccc4c3)c(F)c2)ccn1 [Rebastinib] (2.5 µM) | 3 | 0 | 0 | 4 | 0 | 4 | 3 | 4 | 3 | 3
11 | Cc1nc(-c2cnc(NC(C)C)n(C)c2=O)ccc1Oc1ccnc(-c2cnn(C)c2)c1 (2.5 µM) | 0 | 0 | 0 | 0 | 0 | 1 | 0 | 0 | 0 | 0
12 | N#CC(=Cc1ccc(O)c(O)c1)C(=O)NCc1ccccc1 (mixture of isomers) (10 µM) | 0 | 0 | 0 | 0 | 0 | 0 | 0 | 0 | 0 | 0
13 | COc1nccc(-c2c(-c3ccc(F)cc3)ncn2C2CCC(O)CC2)n1 (stereo not given) (10 µM) | 0 | 0 | 0 | 0 | 0 | 0 | 0 | 0 | 0 | 0
14 | CC(C)(C)n1nc(Cc2cccc3ccccc23)c2c(N)ncnc21 (10 µM) | 0 | 0 | 0 | 0 | 0 | 0 | 0 | 0 | 0 | 0
15 | CCN1CCN(Cc2ccc(C(=O)Nc3ccc(C)c(Oc4ccc5c(c4)CC(=O)N5)c3)cc2C(F)(F)F)CC1 (2.5 µM) | 1 | 0 | 0 | 2 | 0 | 3 | 3 | 2 | 2 | 2
16 | CC#CC(=O)N[C@H]1CCCN(c2c(F)cc(C(N)=O)c3[nH]c(C)c(C)c23)C1 [Branebrutinib] (10 µM) | 0 | 0 | 0 | 0 | 0 | 0 | 0 | 0 | 0 | 0
17 | C[C@H](CN(C)C)Oc1nc(Nc2cc3cccc(Cl)c3cn2)cnc1C#N (10 µM) | 0 | 0 | 0 | 0 | 0 | 0 | 0 | 0 | 0 | 0
18 | O=C(c1ccc(-c2ccc(Cl)cc2)o1)N(Cc1ccccn1)c1ccc(N2CCNCC2)cc1 [MK2-IN-1 (hydrochloride)] (10 µM) | 0 | 0 | 0 | 0 | 0 | 1 | 0 | 1 | 0 | 0
19 | CCn1c(=O)c2cc(C(N)=O)c(N)nc2n(C2CC2)c1=O (10 µM) | 0 | 0 | 0 | 0 | 0 | 0 | 0 | 0 | 0 | 0

Quoted at random: 2 records from the list.
Row | SMILES | number of time points (NTRK3) | number of time points (PAK4) | number of time points (PBK) | number of time points (PDGFRB) | number of time points (PDK1) | number of time points (PDPK1) | number of time points (PIK4CA) | number of time points (PIK4CB) | number of time points (PLK1) | number of time points (PRKAA1)
11 | Cc1nc(-c2cnc(NC(C)C)n(C)c2=O)ccc1Oc1ccnc(-c2cnn(C)c2)c1 (2.5 µM) | 0 | 0 | 0 | 0 | 0 | 1 | 0 | 0 | 0 | 0
8 | O=C1Nc2ccccc2/C1=C/c1ccc(F)cc1 (10 µM) | 0 | 0 | 0 | 0 | 0 | 0 | 0 | 0 | 0 | 0

Later entries.

Row | SMILES | number of time points (NTRK3) | number of time points (PAK4) | number of time points (PBK) | number of time points (PDGFRB) | number of time points (PDK1) | number of time points (PDPK1) | number of time points (PIK4CA) | number of time points (PIK4CB) | number of time points (PLK1) | number of time points (PRKAA1)
20 | C/C=C(/C)C(=O)O[C@H]1Cc2cc3ccc(=O)oc3cc2OC1(C)C [Decursinol angelate] (10 µM) | 0 | 0 | 0 | 0 | 0 | 0 | 0 | 0 | 0 | 0
21 | N#C/C(=C\c1ccc(O)c(O)c1)C(=O)NCCCc1ccccc1 (10 µM) | 0 | 0 | 0 | 0 | 0 | 0 | 0 | 0 | 0 | 0
22 | O=c1oc2c(C3OCCCO3)c(O)ccc2c2c1CNCC2 (10 µM) | 0 | 0 | 0 | 0 | 0 | 0 | 0 | 0 | 0 | 0
23 | COc1ccc(F)c(F)c1C(=O)c1cnc(NC2CCN(S(C)(=O)=O)CC2)nc1N (2.5 µM) | 2 | 0 | 0 | 2 | 0 | 3 | 2 | 2 | 0 | 2
24 | Nc1ncnc2c1c(-c1cccc(OCc3ccccc3)c1)cn2C1CC(CN2CCCC2)C1 (stereo not given) (2.5 µM) | 0 | 0 | 0 | 0 | 0 | 0 | 0 | 0 | 0 | 0
25 | Cc1c[nH]c(/C=C2\C(=O)Nc3ccccc32)c1CCC(=O)O (10 µM) | 0 | 0 | 0 | 0 | 0 | 0 | 0 | 0 | 0 | 0
26 | C=CC(=O)N1CCC[C@@H](n2nc(-c3ccc(Oc4ccccc4)cc3)c(C(N)=O)c2N)C1 [Btk inhibitor 2] (10 µM) | 0 | 0 | 0 | 0 | 0 | 0 | 0 | 0 | 0 | 0
27 | FC(F)(F)c1ccc(CNc2ccc(Cc3c[nH]c4ncc(Cl)cc34)cn2)cc1 (10 µM) | 0 | 0 | 0 | 0 | 0 | 0 | 0 | 0 | 0 | 0
28 | N#C/C(=C\c1ccc(O)c(O)c1)C(=O)NCc1ccccc1 (10 µM) | 0 | 0 | 0 | 0 | 0 | 0 | 0 | 0 | 0 | 0
29 | Cc1c(NC(=O)c2cc3c(s2)CCCC3)cccc1-c1cn(C)c(=O)c(Nc2ccc([C@@H]3C(=O)N(C)CCN3C)cc2)n1 (10 µM) | 0 | 0 | 0 | 0 | 0 | 0 | 0 | 0 | 0 | 0
30 | CN(C)C[C@@H]1CCn2cc(c3ccccc32)C2=C(C(=O)NC2=O)c2cn(c3ccccc23)CCO1 [Ruboxistaurin (hydrochloride)] (10 µM) | 0 | 0 | 0 | 0 | 0 | 0 | 0 | 0 | 0 | 0
31 | N#Cc1ccc2[nH]c(O)c(-c3ccc(CN4CCOCC4)cn3)c2c1 (10 µM) | 0 | 0 | 0 | 0 | 0 | 0 | 0 | 0 | 0 | 0
32 | COC(=O)c1ccc2c(C(=Nc3ccc(N(C)C(=O)CN4CCN(C)CC4)cc3)c3ccccc3)c(O)[nH]c2c1 [Nintedanib] (2.5 µM) | 0 | 0 | 0 | 0 | 0 | 0 | 0 | 0 | 0 | 0
33 | CC(C)CC(=O)Nc1n[nH]c2c1CN(C(=O)C1CCN(C)CC1)C2(C)C (2.5 µM) | 1 | 0 | 0 | 3 | 0 | 3 | 1 | 0 | 0 | 0
34 | C[C@H](NC(=O)/C(C#N)=C/c1cccc(Br)n1)c1ccccc1 (2.5 µM) | 0 | 0 | 0 | 0 | 0 | 0 | 0 | 0 | 0 | 0
35 | C=CC(=O)N1C[C@H](Nc2ncnc3[nH]ccc23)CC[C@@H]1C [Ritlecitinib] (10 µM) | 0 | 0 | 0 | 0 | 0 | 0 | 0 | 0 | 0 | 0
36 | Nc1nc(OCC2CCCCC2)c2[nH]cnc2n1 (10 µM) | 0 | 0 | 0 | 0 | 0 | 0 | 0 | 0 | 0 | 0
37 | COCCNCCc1cccc(Nc2ncc3c(n2)-c2ccccc2[C@H](c2ccccc2F)C3)c1 [Derazantinib] (2.5 µM) | 0 | 0 | 0 | 0 | 0 | 0 | 0 | 0 | 0 | 0
